Binding data for one substance are collected here from article PMC5841405.

Chains of the proteins cited; added tags and fusions are not shown. Lines headed by an entry give the natural chain unless they say otherwise; changes in a name come on top. Residues count along the entry.
UniProt Q9UJC3, residues 11-166: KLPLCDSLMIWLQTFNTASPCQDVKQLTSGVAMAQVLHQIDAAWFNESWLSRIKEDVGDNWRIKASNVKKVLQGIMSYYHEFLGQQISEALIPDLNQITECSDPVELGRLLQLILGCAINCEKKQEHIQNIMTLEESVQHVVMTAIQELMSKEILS

The target of the assay is Hook1_(11–166) (human) (UniProt Q9UJC3). Kind of assay: SEC-MALS; Superose 6 10/300 GL, 20 mM Tris pH 7.5, 100 mM NaCl, 1 mM DTT; both purified. (Size exclusion chromatography separates by hydrodynamic size, large species first.)

These are yes or no findings as the source states them, for the method shown.

For the substance “Hook1_(11–166) (from UniProt Q9UJC3-1 11-166) (domain or fragment)”, the binding result is “no binding”.
